Results from the supplement of paper PMC10849652.
The list shows a part of the results.

Protein sequences, listed by entry. Tags and fused reporters are not part of them. Lines headed by an entry give the natural chain unless they say otherwise; changes in a name come on top.
UniProt P11233: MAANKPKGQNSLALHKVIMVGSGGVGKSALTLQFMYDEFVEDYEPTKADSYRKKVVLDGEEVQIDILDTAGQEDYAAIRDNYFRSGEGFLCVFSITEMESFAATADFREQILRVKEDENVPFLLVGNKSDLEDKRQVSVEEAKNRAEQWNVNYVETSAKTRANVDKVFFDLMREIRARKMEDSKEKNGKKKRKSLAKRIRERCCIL
UniProt Q9UKM9: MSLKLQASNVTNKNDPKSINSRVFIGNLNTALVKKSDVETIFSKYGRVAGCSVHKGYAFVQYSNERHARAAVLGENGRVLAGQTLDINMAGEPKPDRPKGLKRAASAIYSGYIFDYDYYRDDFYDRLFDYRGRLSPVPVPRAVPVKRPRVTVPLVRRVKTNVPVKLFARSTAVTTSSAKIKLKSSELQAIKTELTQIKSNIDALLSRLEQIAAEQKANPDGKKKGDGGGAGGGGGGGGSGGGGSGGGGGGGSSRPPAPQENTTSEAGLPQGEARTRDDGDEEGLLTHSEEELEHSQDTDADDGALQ
UniProt Q9UL26: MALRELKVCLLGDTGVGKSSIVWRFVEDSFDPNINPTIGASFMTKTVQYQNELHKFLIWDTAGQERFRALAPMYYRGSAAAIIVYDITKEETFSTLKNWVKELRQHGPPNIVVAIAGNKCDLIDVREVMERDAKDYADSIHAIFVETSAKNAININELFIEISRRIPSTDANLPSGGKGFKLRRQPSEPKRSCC
UniProt Q9NXS2: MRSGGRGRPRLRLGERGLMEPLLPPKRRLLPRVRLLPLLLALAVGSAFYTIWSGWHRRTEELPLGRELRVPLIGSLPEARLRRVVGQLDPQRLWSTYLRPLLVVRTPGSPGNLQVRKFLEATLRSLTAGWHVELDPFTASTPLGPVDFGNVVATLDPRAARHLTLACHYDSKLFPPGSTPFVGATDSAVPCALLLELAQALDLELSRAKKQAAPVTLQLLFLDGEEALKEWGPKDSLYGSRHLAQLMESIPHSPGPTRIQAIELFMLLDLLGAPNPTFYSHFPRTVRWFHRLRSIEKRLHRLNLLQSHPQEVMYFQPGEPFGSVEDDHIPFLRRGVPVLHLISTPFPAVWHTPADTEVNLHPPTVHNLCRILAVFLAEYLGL
UniProt Q3YEC7: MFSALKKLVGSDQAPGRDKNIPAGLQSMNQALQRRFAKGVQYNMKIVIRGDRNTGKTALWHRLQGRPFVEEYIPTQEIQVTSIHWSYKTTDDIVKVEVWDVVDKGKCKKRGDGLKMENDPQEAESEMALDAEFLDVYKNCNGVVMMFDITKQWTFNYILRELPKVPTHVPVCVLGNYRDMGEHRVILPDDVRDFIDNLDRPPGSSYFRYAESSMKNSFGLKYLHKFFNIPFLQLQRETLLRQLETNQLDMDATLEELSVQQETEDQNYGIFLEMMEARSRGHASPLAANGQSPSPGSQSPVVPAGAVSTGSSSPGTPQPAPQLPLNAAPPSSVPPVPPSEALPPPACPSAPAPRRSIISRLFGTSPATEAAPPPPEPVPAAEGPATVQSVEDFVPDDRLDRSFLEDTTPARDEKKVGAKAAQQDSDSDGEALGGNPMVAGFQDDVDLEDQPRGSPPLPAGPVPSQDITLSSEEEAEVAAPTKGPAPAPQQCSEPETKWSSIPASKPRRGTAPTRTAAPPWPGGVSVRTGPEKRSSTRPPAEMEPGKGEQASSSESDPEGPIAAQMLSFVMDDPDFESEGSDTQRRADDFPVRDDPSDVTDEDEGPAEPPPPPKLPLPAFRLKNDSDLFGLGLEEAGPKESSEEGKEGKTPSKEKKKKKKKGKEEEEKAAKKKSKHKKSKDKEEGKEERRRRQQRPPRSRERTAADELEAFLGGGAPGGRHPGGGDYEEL
UniProt P61018: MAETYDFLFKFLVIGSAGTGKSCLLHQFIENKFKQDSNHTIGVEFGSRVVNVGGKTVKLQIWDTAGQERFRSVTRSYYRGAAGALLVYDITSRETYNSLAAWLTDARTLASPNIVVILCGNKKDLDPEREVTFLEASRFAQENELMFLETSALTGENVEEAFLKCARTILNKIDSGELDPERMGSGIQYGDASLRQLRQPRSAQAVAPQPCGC
UniProt Q9NRW1: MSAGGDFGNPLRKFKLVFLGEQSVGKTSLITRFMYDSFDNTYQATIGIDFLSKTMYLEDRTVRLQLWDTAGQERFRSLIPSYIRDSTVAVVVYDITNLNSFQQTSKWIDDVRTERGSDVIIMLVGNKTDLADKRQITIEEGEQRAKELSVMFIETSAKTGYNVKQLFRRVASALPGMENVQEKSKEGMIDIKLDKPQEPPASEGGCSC
UniProt P52306: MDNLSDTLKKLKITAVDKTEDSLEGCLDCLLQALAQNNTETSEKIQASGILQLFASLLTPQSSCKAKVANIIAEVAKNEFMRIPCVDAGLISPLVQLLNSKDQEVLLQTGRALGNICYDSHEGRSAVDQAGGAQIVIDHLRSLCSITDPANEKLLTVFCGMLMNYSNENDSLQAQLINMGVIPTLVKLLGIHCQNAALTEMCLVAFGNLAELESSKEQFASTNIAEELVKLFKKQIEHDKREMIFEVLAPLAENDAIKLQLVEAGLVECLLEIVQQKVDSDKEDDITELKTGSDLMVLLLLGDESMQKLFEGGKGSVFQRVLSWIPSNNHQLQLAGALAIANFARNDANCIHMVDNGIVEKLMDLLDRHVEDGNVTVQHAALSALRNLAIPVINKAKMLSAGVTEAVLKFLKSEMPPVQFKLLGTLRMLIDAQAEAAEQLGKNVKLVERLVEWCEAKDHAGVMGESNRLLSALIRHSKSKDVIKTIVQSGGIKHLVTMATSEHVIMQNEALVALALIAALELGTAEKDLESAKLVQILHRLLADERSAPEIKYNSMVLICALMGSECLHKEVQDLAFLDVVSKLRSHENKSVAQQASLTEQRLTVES
UniProt P20338: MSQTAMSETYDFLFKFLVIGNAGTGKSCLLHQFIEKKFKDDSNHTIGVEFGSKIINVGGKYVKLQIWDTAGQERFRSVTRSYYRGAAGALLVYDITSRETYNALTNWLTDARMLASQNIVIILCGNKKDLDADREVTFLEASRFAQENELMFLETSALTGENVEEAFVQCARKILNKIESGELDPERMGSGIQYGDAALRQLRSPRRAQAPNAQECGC
UniProt Q6ZRP7: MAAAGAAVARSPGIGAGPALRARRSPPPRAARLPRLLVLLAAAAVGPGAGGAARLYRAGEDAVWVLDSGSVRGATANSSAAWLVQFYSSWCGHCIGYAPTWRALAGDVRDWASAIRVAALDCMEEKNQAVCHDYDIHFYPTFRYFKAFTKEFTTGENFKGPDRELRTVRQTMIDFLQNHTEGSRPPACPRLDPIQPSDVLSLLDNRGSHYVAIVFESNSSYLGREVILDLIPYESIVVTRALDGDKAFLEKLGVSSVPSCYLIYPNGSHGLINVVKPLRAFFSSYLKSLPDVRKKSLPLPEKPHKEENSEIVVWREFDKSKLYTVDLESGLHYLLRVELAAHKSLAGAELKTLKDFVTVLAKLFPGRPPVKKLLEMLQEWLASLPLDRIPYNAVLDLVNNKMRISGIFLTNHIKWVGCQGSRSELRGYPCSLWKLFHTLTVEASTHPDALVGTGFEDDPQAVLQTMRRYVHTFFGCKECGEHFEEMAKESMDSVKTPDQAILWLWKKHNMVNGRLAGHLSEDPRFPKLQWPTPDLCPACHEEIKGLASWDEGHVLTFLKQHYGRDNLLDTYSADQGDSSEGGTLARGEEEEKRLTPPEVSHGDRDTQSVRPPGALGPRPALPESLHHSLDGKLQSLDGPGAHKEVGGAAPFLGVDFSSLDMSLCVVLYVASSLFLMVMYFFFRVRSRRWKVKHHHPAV
UniProt O95716: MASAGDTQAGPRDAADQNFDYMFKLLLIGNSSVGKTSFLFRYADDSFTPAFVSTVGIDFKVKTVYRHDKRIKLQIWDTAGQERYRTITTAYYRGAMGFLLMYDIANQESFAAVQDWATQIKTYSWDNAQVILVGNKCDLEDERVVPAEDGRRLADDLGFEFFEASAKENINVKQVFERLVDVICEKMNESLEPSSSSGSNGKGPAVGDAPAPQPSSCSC
UniProt Q2PPJ7: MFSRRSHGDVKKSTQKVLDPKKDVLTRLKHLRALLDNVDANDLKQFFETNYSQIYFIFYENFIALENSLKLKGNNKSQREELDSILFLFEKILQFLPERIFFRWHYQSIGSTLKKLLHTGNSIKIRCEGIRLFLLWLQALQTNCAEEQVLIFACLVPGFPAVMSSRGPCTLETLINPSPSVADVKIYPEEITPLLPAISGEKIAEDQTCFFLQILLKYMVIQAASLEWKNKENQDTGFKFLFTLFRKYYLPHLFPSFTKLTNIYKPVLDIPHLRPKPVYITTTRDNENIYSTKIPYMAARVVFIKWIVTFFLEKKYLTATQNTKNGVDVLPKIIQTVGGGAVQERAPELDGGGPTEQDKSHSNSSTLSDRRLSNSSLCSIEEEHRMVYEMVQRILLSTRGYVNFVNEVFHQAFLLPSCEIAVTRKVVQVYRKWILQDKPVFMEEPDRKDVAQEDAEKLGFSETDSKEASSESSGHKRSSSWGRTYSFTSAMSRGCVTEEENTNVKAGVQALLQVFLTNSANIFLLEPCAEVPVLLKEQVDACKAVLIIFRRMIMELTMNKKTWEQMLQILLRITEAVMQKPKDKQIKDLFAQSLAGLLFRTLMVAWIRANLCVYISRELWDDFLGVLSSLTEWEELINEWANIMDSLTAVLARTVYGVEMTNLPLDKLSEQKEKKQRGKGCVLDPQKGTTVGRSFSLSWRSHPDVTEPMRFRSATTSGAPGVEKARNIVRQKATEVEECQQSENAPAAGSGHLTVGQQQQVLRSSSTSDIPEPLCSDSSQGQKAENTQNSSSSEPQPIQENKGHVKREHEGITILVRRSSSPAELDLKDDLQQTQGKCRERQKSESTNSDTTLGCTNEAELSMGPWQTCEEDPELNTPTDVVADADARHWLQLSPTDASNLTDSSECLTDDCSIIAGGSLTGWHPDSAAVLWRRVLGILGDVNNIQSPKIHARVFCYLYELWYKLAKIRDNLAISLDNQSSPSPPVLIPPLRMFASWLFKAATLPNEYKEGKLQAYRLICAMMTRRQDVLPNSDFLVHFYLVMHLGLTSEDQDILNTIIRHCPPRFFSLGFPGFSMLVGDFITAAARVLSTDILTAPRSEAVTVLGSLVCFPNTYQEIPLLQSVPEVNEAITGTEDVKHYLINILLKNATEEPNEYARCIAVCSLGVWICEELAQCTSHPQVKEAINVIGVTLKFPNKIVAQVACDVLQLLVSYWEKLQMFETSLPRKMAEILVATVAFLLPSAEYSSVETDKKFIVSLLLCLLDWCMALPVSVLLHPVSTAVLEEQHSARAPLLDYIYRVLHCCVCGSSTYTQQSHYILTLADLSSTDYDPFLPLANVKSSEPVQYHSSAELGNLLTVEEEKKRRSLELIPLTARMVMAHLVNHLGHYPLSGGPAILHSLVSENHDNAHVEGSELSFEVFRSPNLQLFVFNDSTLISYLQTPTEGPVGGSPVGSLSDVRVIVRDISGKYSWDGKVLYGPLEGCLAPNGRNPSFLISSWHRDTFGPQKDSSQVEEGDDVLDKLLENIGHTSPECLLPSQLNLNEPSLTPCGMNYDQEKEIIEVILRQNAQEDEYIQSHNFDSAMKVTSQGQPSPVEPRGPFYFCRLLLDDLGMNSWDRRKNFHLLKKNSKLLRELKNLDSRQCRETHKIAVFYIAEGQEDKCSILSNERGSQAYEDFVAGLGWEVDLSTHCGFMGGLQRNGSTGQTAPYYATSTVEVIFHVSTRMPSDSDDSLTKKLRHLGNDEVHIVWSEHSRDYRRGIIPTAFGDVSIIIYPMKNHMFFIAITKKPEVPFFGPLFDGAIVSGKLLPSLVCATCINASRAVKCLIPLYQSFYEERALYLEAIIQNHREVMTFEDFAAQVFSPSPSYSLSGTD
UniProt O00391: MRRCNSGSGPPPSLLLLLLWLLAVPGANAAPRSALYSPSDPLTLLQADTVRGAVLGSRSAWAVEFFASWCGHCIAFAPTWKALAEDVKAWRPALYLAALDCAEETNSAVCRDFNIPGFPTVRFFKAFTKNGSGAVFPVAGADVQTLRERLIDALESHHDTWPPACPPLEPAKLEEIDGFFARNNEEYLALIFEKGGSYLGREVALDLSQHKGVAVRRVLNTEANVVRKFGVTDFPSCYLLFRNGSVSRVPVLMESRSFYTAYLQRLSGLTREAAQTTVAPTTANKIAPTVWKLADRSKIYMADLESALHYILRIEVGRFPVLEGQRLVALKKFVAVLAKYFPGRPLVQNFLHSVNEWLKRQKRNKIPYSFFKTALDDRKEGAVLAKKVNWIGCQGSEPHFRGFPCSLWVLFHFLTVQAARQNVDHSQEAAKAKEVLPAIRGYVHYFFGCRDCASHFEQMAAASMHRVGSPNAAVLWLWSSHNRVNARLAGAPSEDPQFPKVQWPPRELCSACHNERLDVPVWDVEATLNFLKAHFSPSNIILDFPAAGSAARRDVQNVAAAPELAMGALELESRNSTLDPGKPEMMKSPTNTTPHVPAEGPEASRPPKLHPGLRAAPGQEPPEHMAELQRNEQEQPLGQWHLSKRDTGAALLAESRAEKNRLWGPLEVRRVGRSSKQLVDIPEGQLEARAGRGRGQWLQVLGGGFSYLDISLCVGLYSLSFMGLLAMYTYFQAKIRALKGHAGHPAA

How the values were obtained:
Assay in all cases: log2 fold change, soluble protein after heating vs DMSO (PISA); higher = thermal stabilisation; K562 lysate, 10 uM; active = over 0.2 and 3.5 SD of the protein, either way, in both replicates (recomputed)
[1] = compound: C1=CC=C(C=C1)[C@H](COC2=CC3=C(C=C2)NC(=O)N3)NC(=O)C4=CC=CN(C4=O)CC5=CC(=C(C=C5)F)F
Method in brief: (§1)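 Quantification was by TMTpro 16plex LC-MS/MS with equalised channel sums, applied to the supernatant after 21,000xg for 90 min. Samples were crude K562 extract at 1 mg/mL protein in PBS pH 7.4 with 1 mM MgCl2, treated with 10 μM compound for 30 min, heated for 3 min across 48°C-58°C, pooled and brought to 0.5% NP-40 at 4°C. Values are log-two fold changes in thermal stability relative to solvent controls, from duplicates.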

[2] = compound: CC1=C(SC2=C1C(=N[C@H](C3=NN=C(N32)C)CC(=O)N)C4=CC=C(C=C4)Cl)C
Method in brief: as §1

[3] = compound: CC1=C2C(=CC=C1)N=C(N(C2=O)C3=CC=CC=C3C)CN4C=NC5=C(N=CN=C54)N
Method in brief: as §1

[4] = compound: Cc1sc2c(c1C)C(c1ccc(Cl)cc1)=N[C@@H](CC(=O)OC(C)(C)C)c1nnc(C)n1-2
Method in brief: as §1

[5] = compound: c1ccc([C@@H]2C[C@H]2NC2CCNCC2)cc1
Method in brief: as §1

Measured: log2 fold change

RALA (UniProt P11233)
inactive: [1] -0.013 | [2] 0.071 | [3] -0.008 | [4] -0.004 | [5] -0.225

RALY (UniProt Q9UKM9)
inactive: [1] 0.046 | [2] 0.013 | [3] 0.025 | [4] 0.03 | [5] 0.026

RAB22A (UniProt Q9UL26)
inactive: [1] 0.002 | [2] 0.006 | [3] 0.021 | [4] -0.09 | [5] -0.004

QPCTL (UniProt Q9NXS2)
inactive: [1] 0.074 | [2] 0.003 | [3] 0.047 | [4] 0.035 | [5] 0.046

RABL6 (UniProt Q3YEC7)
inactive: [1] 0.058 | [2] 0.004 | [3] 0.031 | [4] 0.013 | [5] -0.009

RAB4B isoform 2 (UniProt P61018)
inactive: [1] -0.018 | [2] -0.01 | [3] 0.047 | [4] 0.098 | [5] 0.003

RAB6B (UniProt Q9NRW1)
inactive: [1] 0.027 | [2] -0.018 | [3] -0.033 | [4] 0.014 | [5] 0.023

R3HCC1L, A0A384DVK4
inactive: [1] 0.013 | [2] 0.014 | [3] -0.039 | [4] -0.023 | [5] -0.054

RANBP2 (UniProt P49792)
inactive: [1] -0.019 | [2] -0.009 | [3] 0.002 | [4] 0.003 | [5] 0.02

RAPGEF2, A0A2R8YGD3
inactive: [1] -0.043 | [2] 0.021 | [3] -0.046 | [4] -0.003
active: [5] -0.32

RAB5C isoform 2 (UniProt P51148)
inactive: [1] -0.005 | [2] 0.046 | [3] 0.033 | [4] -0.021 | [5] 0.001

RAP1GDS1 isoform 5 (UniProt P52306)
inactive: [1] -0.008 | [2] 0.021 | [3] -0.011 | [4] -0.006 | [5] -0.006

RAB4A (UniProt P20338)
inactive: [1] 0.008 | [2] -0.018 | [3] -0.013 | [4] 0.054 | [5] 0.027

QSOX2 (UniProt Q6ZRP7)
inactive: [1] 0.008 | [2] -0.008 | [3] 0.001 | [4] -0.066 | [5] -0.062

QRSL1 (UniProt Q9H0R6)
inactive: [1] -0.005 | [2] -0.056 | [3] -0.101 | [4] 0.041 | [5] 0.094

RAB3A (UniProt P20336)
inactive: [1] -0.028 | [2] -0.019 | [3] 0.075 | [4] 0.095 | [5] 0.013

RACK1 (UniProt P63244)
inactive: [1] 0.015 | [2] -0.011 | [3] -0.01 | [4] 0.053 | [5] 0.059

RAB8B (UniProt Q92930)
inactive: [1] -0.067 | [2] 0.013 | [3] -0.041 | [4] -0.012 | [5] 0.146

RAD51D (UniProt O75771)
inactive: [1] -0.057 | [2] 0.213 | [3] 0.056 | [4] -0.005 | [5] -0.045

RAD51AP1 (UniProt Q96B01)
inactive: [1] 0.017 | [2] 0.116 | [4] 0.143 | [5] -0.024

RAB3IL1 (UniProt E9PK89)
inactive: [1] -0.109 | [2] 0.057 | [3] 0.014 | [4] -0.189 | [5] -0.006

Quoted from the listing (2 entries):
RACK1 (UniProt P63244)
inactive: [1] 0.015 | [2] -0.011 | [3] -0.01 | [4] 0.053 | [5] 0.059

RAB8B (UniProt Q92930)
inactive: [1] -0.067 | [2] 0.013 | [3] -0.041 | [4] -0.012 | [5] 0.146

More entries follow.

RAF1 isoform 2 (UniProt P04049)
inactive: [1] 0.024 | [2] 0.035 | [3] -0.104 | [4] -0.017 | [5] 0.013

RAB3D (UniProt O95716)
inactive: [3] 0.104 | [4] -0.032

RALGAPA2 (UniProt Q2PPJ7)
inactive: [5] 0.211

QSOX1 (UniProt O00391)
inactive: [4] 0.152 | [5] -0.066

RANGRF (UniProt Q9HD47)
inactive: [4] 0.093
